# Results published in the supplement of paper PMC8866396.
# ± gives the standard deviation of the averaged measurements. Some of the results follow. This data set is noisy: repeats of one test often differ as much as different tests do.
# Test system: IL-6-GFP PC-9GR
# Test: IL-6-GFP fluorescence relative to DMSO control (fraction of control); higher = more IL-6-GFP expression
# Conditions: compound concentration: 10 uM; treatment time: 48 h
# Protocol: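 IL-6-GFP-overexpressing PC-9 and PC-9GR EGFR-mutant lung cancer cells (3000 cells/well, 96-well) were treated for 48 h with each compound of the Selleck L2000 library at 10 uM. IL-6-GFP fluorescence was read on a high-content screening system, and viability by CCK-8 absorbance on a parallel plate set. Each value was normalised as compound well / DMSO control well; two independent replicates.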
row,Compound,IL-6-GFP fluorescence
1,Nc1ccn(C2OC(CO)C(O)C2O)c(=O)n1 (centres undefined) [Cytarabine],0.893 ± 0.063
2,O=NN(CCCl)C(=O)NCCCl [Carmustine],0.914 ± 0.032
3,NCCc1c[nH]cn1 [Histamine],0.645 ± 0.56
4,Nc1ncn(C2OC(CO)C(O)C2O)c(=O)n1 (centres undefined) [Azacitidine],0.672 ± 0.28
5,COc1nc(N)nc2c1ncn2C1OC(CO)C(O)C1O (centres undefined) [Nelarabine],0.989 ± 0.062
6,"C/C=C1/C2C=C(C)CC1(N)c1ccc(=O)[nH]c1C2 (single isomer, unassigned; (-)) [(-)-Huperzine A (HupA)]",0.672 ± 0.11
7,O=c1c(-c2ccc(O)cc2)coc2cc(O)cc(O)c12 [Genistein],1.01 ± 0.11
8,CCCCOC(=O)c1ccccc1Nc1cccc(C(F)(F)F)c1 [Ufenamate],0.989 ± 0.033
9,Cc1coc2c1C(=O)C(=O)c1c-2ccc2c1CCCC2(C)C [Tanshinone IIA],0.945 ± 0.061
10,O=NN(CCCl)C(=O)NC1CCCCC1 [Lomustine],0.683 ± 0.13
11,O=c1[nH]c(=O)n(C2CCCO2)cc1F (centres undefined),0.954 ± 0.025
12,Cc1c(Cl)cccc1Nc1ncccc1C(=O)O [Clonixin],0.69 ± 0.012
13,COc1cc2nccc(Oc3ccc(NC(=O)C4(C(=O)Nc5ccc(F)cc5)CC4)cc3)c2cc1OC,1.09 ± 0.25
14,CC(C(=O)O)c1ccc(CC2CCCC2=O)cc1 (centres undefined) [Loxoprofen],0.752 ± 0.026
15,COc1cccc2c1C(=O)c1c(O)c3c(c(O)c1C2=O)CC(O)(C(=O)CO)CC3OC1CC(N)C(O)C(C)O1.Cl (centres undefined) [Doxorubicin (Adriamycin) HCl],0.813 ± 0.022
16,Cl.NC1=NCC2c3ccccc3Cc3ccccc3N12 (centres undefined) [Epinastine HCl],0.579 ± 0.23
17,CCOC(=O)N1CCC(=C2c3ccc(Cl)cc3CCc3cccnc32)CC1 [Loratadine],0.963 ± 0.014
18,CNC(=NC#N)NCCSCc1nc[nH]c1C [Cimetidine],0.611 ± 0.35
19,OCc1ccccc1OC1OC(CO)C(O)C(O)C1O (centres undefined) [Salicin],0.769 ± 0.22
20,O=c1cc[nH]c(=O)[nH]1 [Uracil],0.66 ± 0.21

row,Compound,IL-6-GFP fluorescence
1,CC(C(=O)O)c1ccc2c(c1)Cc1cccnc1O2 (centres undefined) [Pranoprofen],0.79 ± 0.21
2,CC(C(=O)[O-])c1cccc(Oc2ccccc2)c1.CC(C(=O)[O-])c1cccc(Oc2ccccc2)c1.[Ca+2] (centres undefined) [Fenoprofen Calcium],0.805 ± 0.1
3,O=C(O)CCc1nc(-c2ccccc2)c(-c2ccccc2)o1 [Oxaprozin],0.67 ± 0.31
4,Cc1ccc(Nc2c(F)cccc2Cl)c(CC(=O)O)c1 [Lumiracoxib],0.943 ± 0.14
5,Cc1ccc(C(C)C)cc2c(C)ccc1-2 [Guaiazulene],0.871 ± 0.063
6,NC1CCCCC1N.O=C([O-])C(=O)[O-].[Pt+2] (centres undefined) [Oxaliplatin],0.862 ± 0.05
7,CN(C)CCC(c1ccc(Br)cc1)c1ccccn1.O=C(O)/C=C\C(=O)O (centres undefined) [Brompheniramine hydrogen maleate],1.09 ± 0.3
8,CC(=O)OCC(CCn1cnc2cnc(N)nc21)COC(C)=O [Famciclovir],0.877 ± 0.12
9,C[S+](C)CCC(N)C(=O)O.[Cl-] (centres undefined),0.707 ± 0.043
10,CC1CNc2c(cccc2S(=O)(=O)NC(CCCNC(=N)N)C(=O)N2CCC(C)CC2C(=O)O)C1.O (centres undefined) [Argatroban Monohydrate],0.869 ± 0.042
11,CC(=O)OC1(C(C)=O)CCC2C3C=C(C)C4=CC(=O)CCC4(C)C3CCC21C (centres undefined) [Megestrol Acetate],0.932 ± 0.079
12,Cn1cc(C2=C(c3cccc(N)c3)C(=O)NC2=O)c2ccccc21,0.972 ± 0.33
13,CC(C(=O)O)c1ccc2c(c1)CC(=O)c1ccccc1S2 (centres undefined) [Zaltoprofen],0.891 ± 0.073
14,CS(=O)(=O)Nc1cc2occ(NC=O)c(=O)c2cc1Oc1ccccc1 [Iguratimod],2.58 ± 0.37
15,NC(CCC(=O)NC(CS)C(=O)NCC(=O)O)C(=O)O (centres undefined) [Glutathione],0.829 ± 0.14
16,Cc1cc(S(=O)(=O)[O-])c2c(C)ccc(C(C)C)cc1-2.[Na+] [Sodium gualenate],0.85 ± 0.11
17,CC(CCC(=O)NCCS(=O)(=O)O)C1CCC2C3C(O)CC4CC(O)CCC4(C)C3CCC12C (centres undefined) [Tauroursodeoxycholic Acid (TUDCA)],0.982 ± 0.13
18,CC(=O)OC[C@H]1O[C@@H]([S-])[C@H](OC(C)=O)[C@@H](OC(C)=O)[C@@H]1OC(C)=O.CCP(CC)CC.[Au+] [Auranofin],0.509 ± 0.3
19,O.S=c1nc[nH]c2nc[nH]c12 [6-Mercaptopurine (6-MP) Monohydrate],0.592 ± 0.24

# In another format: entries from further up
row | Compound | IL-6-GFP fluorescence
16 | Cc1cc(S(=O)(=O)[O-])c2c(C)ccc(C(C)C)cc1-2.[Na+] [Sodium gualenate] | 0.85 ± 0.11
17 | CC(CCC(=O)NCCS(=O)(=O)O)C1CCC2C3C(O)CC4CC(O)CCC4(C)C3CCC12C (centres undefined) [Tauroursodeoxycholic Acid (TUDCA)] | 0.982 ± 0.13
